These are yes or no findings as the source states them, for the method shown. Some results given as binding are weak or reduced against the parent protein; the word gives no strength.
Target: human vascular endothelial growth factor 2 (VEGF-2) (human) (UniProt P49767)
Assay: phage display selection of scFvs; no assay details given

Amino acid sequences for entries named in this document (tags omitted). A change or cut given only in a name is not applied to a line headed by its entry.
UniProt P49767: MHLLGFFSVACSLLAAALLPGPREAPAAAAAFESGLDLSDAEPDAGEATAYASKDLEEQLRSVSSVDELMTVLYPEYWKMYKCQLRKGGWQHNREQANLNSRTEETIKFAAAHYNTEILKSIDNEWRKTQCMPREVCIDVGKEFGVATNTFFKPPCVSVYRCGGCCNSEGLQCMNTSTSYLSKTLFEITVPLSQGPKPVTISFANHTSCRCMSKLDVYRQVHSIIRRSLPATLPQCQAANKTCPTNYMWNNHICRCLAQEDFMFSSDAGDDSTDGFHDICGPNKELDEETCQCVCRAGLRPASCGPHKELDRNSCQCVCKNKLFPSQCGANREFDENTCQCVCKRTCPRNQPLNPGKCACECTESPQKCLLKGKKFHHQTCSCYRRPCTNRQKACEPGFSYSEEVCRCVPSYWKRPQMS

Binder | binding
25A07 (scFv) scFv: EVQLLESGGGLVQPEGSLRLSCAASGFTFSSYAMSWVRQAPGKGLEWVSAISGSGGSTYYADSVKGRFTISRDNSKNTLYLQMNSLRAEDTAVYYCARDLSDSKFDPWGRGSMVTVSSGGGGSGGGGSGGGGSALSYELTQPPSSSGTPGQRVTISCSGSSSNIGRHTVSWYQQVPGTAPKLLIYSDDHRPSGVPDRFSASKSGTSASLTITGLQSEDEADYYCAAWDDSLNGPWVFGGGTKLTVLG | binds
20G11 (scFv) scFv: EVQLLESGGGLVQPGGSLRLSCAASGFTFSSYAMSWARQAPGKGLEWVSAISGSGGSTYYADSVKGRFTISRDNSKNTLYLQMNSLRAEDTAVYYCARWVGGNEGSWSDWGQGTLVTVSSGGGGSGGGGSGGGGSALNFMLTQPHSVSESPGKTVTISCTRSGGSIASNYVQWYQQRPGSVPTTLIYEDHKRPSGVPDRFSGSIDSSSNSASLTISGLKTEDEADYYCQSYDTSAWVFGGGTKLTVLG | binds
20G02 (scFv) scFv: EVQLLESGGGLVQPGGSLRLSCAASGFTFSSYAMSWARQAPGKGLEWVSAISGSGGSTYYADSVKGRFTISRDNSKNTLYLQMNSLRAEDTAVYYCARFSRNSWENWGRGTLVTVSSGGGGSGGGGSGGGGSAQAVVIQEPSFSVSPGGTVTLTCGLSSGSVSTSNYPSWHRQTPGQAPRTLIYNTNTRSSGVPDRFSGSILGNKAALTITGAQADDESDYYCALHMRSGLSVFGGGTKVTVLG | binds
19B09 (scFv) scFv: QVQLQESGPGLVKPSQTLSLTCSVSGGSISSRGYYWSWIRQHPGKGLEWIGYIYHNGNTYYNPSLKSRITMSVDTSKNQFSLKLSSVTAADTAVYFCARDKVVTGISGGFDLWGRGTLVTVSSGGGGSGGGGSGGGGSAQAVLTQPSSLSGAPGQRVTISCTGSSSNIGAGYDVHWYQHLPGTAPKLLIYGNNNRPSGVPDRFSGSKSGTSASLTITGLQAEDEADYYCQSDDSLSDSVVFGGGTQLTVLS | binds
32G10X (scFv) scFv: QMQLVQSGAEVKKPGSSVKVSCKASGGIFSSYAISWVRQAPGQGLEWMGGIIPRFGTANYAQKFEGRVTITADESTSTAYMELSSLRSEDTAVYYCARDTVKSSGSYPYYNYYYMDVWGQGTLVTVSSSYVLTQPPSVSVSPGQTASITCSGDKLGDKYASWYQQKPGQSPVLVIHQDNKRPSGIPERFSGSNSGNTATLTISGTQAMDEADYYCQAWDSSLGVFGTGTKVTVLG | binds
69D09 (scFv) scFv: EVRLLESGGGLVQPGGSLRLSCAASGFTFRPRAMAWVRQAPGKGLEWVSSISAQGASAYYADSVKGRFTISRDNSKNTLYLQMNSLRAEDTAVYYCARDLSVSGFGPWGRGTMVAVSSGGGGPGGGGSGGGRSALSYELTQPPSSSGTPGQRVTISCSGSSSNIGRHTVSWYQQVPGTAPKLLIYSDDHRPSGVPDRFSASKSGTSASLTITGLQSEDEADYYCAAWDDSLNGPWVFGGGTKLTVLG | binds
16C10 (scFv) scFv: QMQLVQSGAEVKKPGSSVKVSCKASGGIFSSYAISWVRQAPGQGLEWMGGIIPRFGTANYAQKFEGRVTITADESTSTAYMELSSLRSEDTAVYYCARDQVRASGSYPYYYYYYMDVWGQGTLVTVSSGGGGSGGGGSGGGGSALSYVLTQPPSMSVSPGQTARITCSGDKLGDKYASWYQQKPGQSPVLVIYQDSERPSGIPERFSGSNSGNTATLTIRGTQPLDEADYYCQTWDTSTGVFGGGTQLTVLS | binds

Now from value to binder:

binding | Binder
binds | 16B06 (scFv) scFv: EVQLVETGGGFVRPGGSLRLSCAASGFTFSNYAMTWFRQAPGKGLEWVSDISGDGIGTYNADSVKGRFTISRDNSNSILYLQMNSLRAEDTAVYYCAKDRWYTSGWIFDYWGKGTLVTVSSGGGGSGGGGSGGGGSAQAVLTQPSSMSGAPGQRVTISCTGSSSNIGAGYDVHWYQQLPGTAPKLLIYANNNRPSGVPARFSGSKSGTSAYLAIAGLQAADESDYYCQSYDSYLGDSVFGGGTKLTV
binds | 72D09 (scFv) scFv: EVQLLKSGGGLVQPGGSLRLSCAASGFTFSSYAMSWVRQAPGKGLEWVSAISGSGGSTYYADSVKGRFTISRDNSKNTLYLQMNSLRAEDTAVYYCARDLSAGFFDPWGRGTMVTVSSGGGGSGGGGSGGGGSAQSVLTQPPSSSGTPGQRVTISCSGSSSNIGRHTVSWYQQVPGTAPKLLIYSDDHRPSGVPDRFSASKSGTSASLTITGLQSEDEADYYCAAWDDSLNGPWVFGGGTKLTVLG
binds | 30E06X (scFv) scFv: QMQLVQSGAEVKKPGSSVKVSCKASGGIFSSYAISWVRQAPGQGLEWMGGIIPRFGTANYAQKFEGRVTITADESTSTAYMELSSLRSEDTAVYYCARDQVRASGNYPYYYYYYMDVWGQGTLVTVSSSYVLTQPPSVSVSPGQTASITCSGDKLGDKYASWYQQKPGQSPVLVIHQDNKRPSGIPERFSGSNSGNTATLTISGTQAMDEADYYCQAWDSSLGVFGTGTKVTVLG

From US20050232921A1
